Record: PubChem BioAssay AID1224827 (NIAID, 2016)
In all, the deposit lists about 3,800 reagents; this is a part drawn at random. About 2,200 of them (57%) were called active. 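Active means a strong reporter change in either direction; calls are per siRNA, not per gene; qiagen siRNAs gave weaker effects.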

- Aim: 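Confirm genes whose knock-down changes LPS-driven TNF promoter activity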 (follow-up of hits)
- System: RAW264.7 G9 mouse macrophage reporter clone
- Reagent: single siRNA against mouse genes, 100 nM siRNA
- Duration: siRNA for 2 days, then LPS about 16 h
- Treatment: bacterial lipopolysaccharide (LPS), 10 ng/ml, cells fixed after overnight (about 16 h) stimulation
- Read-out: 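Imaged nuclear TNF reporter intensity, background removed, scaled per plate and to non-targeting control wells, as z-scores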
- Direction: TNF reporter z-score, mean and TNF reporter z-score: higher = stronger Tnf promoter reporter signal; gene median z, three same-vendor siRNAs: higher = stronger Tnf reporter signal for the gene
- Active means: 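An siRNA is called active when its mean z-score over replicates is at least +2 or at most -2; control wells get no call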

target gene | PubChem SID | TNF reporter z-score, mean | gene median z, three same-vendor siRNAs | TNF reporter z-score, repeat 1 | TNF reporter z-score, repeat 2 | outcome
Or52u1 | SID315488616 | 1.14 | -0.586 | 0.232 | 2.05 | inactive
Or52u1 | SID315488617 | 0.751 | -0.586 | -1.4 | 2.91 | inactive
Or52u1 | SID315488618 | -5.17 | -0.586 | -4.57 | -5.76 | active
Or52u1 | SID315488619 | 3.37 | -0.758 | 5.65 | 1.09 | active
Or52u1 | SID315488620 | -0.871 | -0.758 | -0.487 | -1.25 | inactive
Or52u1 | SID315488621 | -1.53 | -0.758 | -2.04 | -1.03 | inactive
Ear2 | SID315484071 | 4.7 | -0.889 | 7.78 | 1.63 | active
Ear2 | SID315484072 | -1.24 | -0.889 | -0.735 | -1.75 | inactive
Ear2 | SID315484073 | -1.44 | -0.889 | -1.04 | -1.84 | inactive
Grb2 | SID315484227 | 3.14 | -3.4 | 1.46 | 4.82 | active
Grb2 | SID315484228 | -3.64 | -3.4 | -3.63 | -3.65 | active
Grb2 | SID315484229 | -4.04 | -3.4 | -3.16 | -4.91 | active
Grb2 | SID315484230 | 0.685 | -0.402 | 1.64 | -0.267 | inactive
Grb2 | SID315484231 | -0.0371 | -0.402 | 0.463 | -0.537 | inactive
Grb2 | SID315484232 | -0.844 | -0.402 | -1.01 | -0.676 | inactive
Tceal6 | SID315486330 | 3.61 | 0.686 | 6.46 | 0.769 | active
Tceal6 | SID315486331 | 2.93 | 0.686 | 5.42 | 0.436 | active
Tceal6 | SID315486332 | 0.00825 | 0.686 | 0.602 | -0.586 | inactive
Tnfrsf22 | SID315486927 | 0.378 | -2.67 | -0.0449 | 0.801 | inactive
Tnfrsf22 | SID315486928 | -2.67 | -2.67 | -2.9 | -2.43 | active
Tnfrsf22 | SID315486929 | -3.86 | -2.67 | -3.35 | -4.36 | active
Tnfrsf22 | SID315486930 | 2.47 | 1.21 | 3.11 | 1.82 | active
Tnfrsf22 | SID315486931 | 0.432 | 1.21 | 0.59 | 0.274 | inactive
Tnfrsf22 | SID315486932 | 0.862 | 1.21 | 2.17 | -0.443 | inactive
Birc2 | SID315483729 | 6.09 | 4.4 | 3.98 | 8.19 | active
Birc2 | SID315483730 | 5.22 | 4.4 | 4.81 | 5.62 | active
Birc2 | SID315483731 | -2.66 | 4.4 | -2.7 | -2.61 | active
Birc2 | SID315483732 | 2.9 | 0.814 | 4.23 | 1.58 | active
Birc2 | SID315483733 | 0.814 | 0.814 | 1.44 | 0.187 | inactive
Birc2 | SID315483734 | -1.93 | 0.814 | -1.67 | -2.19 | inactive
Cubn | SID315486315 | -2.19 | -2.56 | -2.53 | -1.84 | active
Cubn | SID315486316 | -2.42 | -2.56 | -2.59 | -2.25 | active
Cubn | SID315486317 | -3.06 | -2.56 | -2.83 | -3.3 | active
Rab24 | SID315484743 | 0.0183 | -4.95 | -0.621 | 0.658 | inactive
Rab24 | SID315484744 | -5.07 | -4.95 | -5.01 | -5.13 | active
Rab24 | SID315484745 | -5.09 | -4.95 | -4.89 | -5.28 | active
Rab24 | SID315484746 | 4.22 | 0.598 | 7.49 | 0.939 | active
Rab24 | SID315484747 | 1.07 | 0.598 | 1.88 | 0.256 | inactive
Rab24 | SID315484748 | -2.89 | 0.598 | -2.74 | -3.04 | active
Plgrkt | SID315486492 | -1.83 | -3.13 | -0.69 | -2.97 | inactive
Plgrkt | SID315486493 | -3.59 | -3.13 | -3.94 | -3.24 | active
Plgrkt | SID315486494 | -3.84 | -3.13 | -4.66 | -3.02 | active
Plgrkt | SID315486495 | 1.89 | -0.27 | 3.77 | 0.00813 | inactive
Plgrkt | SID315486496 | -0.368 | -0.27 | -0.0653 | -0.672 | inactive
Plgrkt | SID315486497 | -0.545 | -0.27 | -0.474 | -0.617 | inactive

The list goes on; the last 4 above are carried over.
target gene | PubChem SID | TNF reporter z-score, mean | gene median z, three same-vendor siRNAs | TNF reporter z-score, repeat 1 | TNF reporter z-score, repeat 2 | outcome
Plgrkt | SID315486494 | -3.84 | -3.13 | -4.66 | -3.02 | active
Plgrkt | SID315486495 | 1.89 | -0.27 | 3.77 | 0.00813 | inactive
Plgrkt | SID315486496 | -0.368 | -0.27 | -0.0653 | -0.672 | inactive
Plgrkt | SID315486497 | -0.545 | -0.27 | -0.474 | -0.617 | inactive
Large2 | SID315488310 | -2.04 | -3.33 | -3.51 | -0.57 | active
Large2 | SID315488311 | -2.94 | -3.33 | -3.14 | -2.73 | active
Large2 | SID315488312 | -4.82 | -3.33 | -5.56 | -4.08 | active
Large2 | SID315488313 | 1.31 | 0.388 | 1.48 | 1.15 | inactive
Large2 | SID315488314 | 1 | 0.388 | 2.37 | -0.372 | inactive
Large2 | SID315488315 | -2.2 | 0.388 | -3.01 | -1.38 | active
Nfkbid | SID315488508 | -0.5 | -3.13 | -0.622 | -0.379 | inactive
Nfkbid | SID315488509 | -3.13 | -3.13 | -3.51 | -2.75 | active
Nfkbid | SID315488510 | -4.1 | -3.13 | -4.34 | -3.87 | active
Nfkbid | SID315488511 | 1.68 | -0.0338 | 3.87 | -0.506 | inactive
Nfkbid | SID315488512 | 0.208 | -0.0338 | 0.774 | -0.358 | inactive
Nfkbid | SID315488513 | -0.871 | -0.0338 | 0.29 | -2.03 | inactive
Krr1 | SID315485625 | -0.668 | -1.69 | -0.843 | -0.492 | inactive
Krr1 | SID315485626 | -1.69 | -1.69 | -2.02 | -1.36 | inactive
Krr1 | SID315485627 | -3.3 | -1.69 | -3.21 | -3.4 | active
Krr1 | SID315485628 | 1.93 | 1.11 | 3.39 | 0.459 | inactive
Krr1 | SID315485629 | 1.06 | 1.11 | 1.76 | 0.36 | inactive
Krr1 | SID315485630 | 0.695 | 1.11 | 2.18 | -0.793 | inactive
Svil | SID315488262 | -1.2 | -1.61 | 0.141 | -2.55 | inactive
Svil | SID315488263 | -1.35 | -1.61 | -1.05 | -1.64 | inactive
Svil | SID315488264 | -1.9 | -1.61 | -1.57 | -2.24 | inactive
Svil | SID315488265 | 1.84 | -2.2 | 3.78 | -0.105 | inactive
Svil | SID315488266 | -2.22 | -2.2 | -2.39 | -2.06 | active
Svil | SID315488267 | -2.9 | -2.2 | -3.45 | -2.35 | active
Serpinc1 | SID315483777 | 1.52 | -0.652 | 1.27 | 1.78 | inactive
Serpinc1 | SID315483778 | -0.652 | -0.652 | -1.64 | 0.338 | inactive
Serpinc1 | SID315483779 | -3.49 | -0.652 | -3.4 | -3.58 | active
Serpinc1 | SID315483780 | 4.13 | 2.19 | 7.35 | 0.907 | active
Serpinc1 | SID315483781 | 1.8 | 2.19 | 3.62 | -0.0247 | inactive
Serpinc1 | SID315483782 | 1.03 | 2.19 | 3.47 | -1.41 | inactive
